For 28 molecules, T/C and survivor count results are on record in PubChem BioAssay AID248 (DTP/NCI, 2004).

Structures are written as SMILES. The list does not hold the whole screen: it gathers tests that were run many times, whatever their T/C, doses with no T/C, and many T/C values between a quarter and a half above the control. Further doses and runs are listed elsewhere. T/C: endpoint of the treated group in % of that of the vehicle group. Some doses have a count of surviving animals in place of a T/C: the source files T/C as zero there, which appears to mark a toxic dose or a test without result, not a measured value. Some survivor counts are full or nearly so, which does not show that the dose was tolerated: survival well below the control is almost never listed, so the zero probably covers shortened survival too. Counts of survivors are from the toxicity check (mostly the fifth day) where no day follows; animals may have died later. Schedule codes are those of the source, taken here to give the interval after Q, in days (D) or hours (H), and the number of doses after X. Some schedules carry Z or #; the key to these is not given. Some doses were run more than once; the results are listed from low to high. For survival time, this PubChem deposit counts one and a half times the control or more as active, and values a quarter to a half above the control carry no call in these data; other NCI protocols may use other cut-offs. Some T/C values carry the count of animals alive at the toxicity check (mostly the fifth day); where none is given, no animal had died by that day.

For this assay, the system named is L1210 leukemia ip in BDF1 mice, survival T/C. Nature of the assay: NCI In Vivo Anticancer Drug Screen. Data for tumor model L1210 Leukemia (intraperitoneal) in B6D2F1 (BDF1) mice. Conditions: T/C endpoint: mean survival time, higher T/C = longer survival.
Where [1] appears, read: dose: 400.0 mg/kg/injection, schedule: Q01DX001 (ip), vehicle: carboxymethylcellulose (CMC).
[2] abbreviates: dose: 400.0 mg/kg/injection, schedule: Q01DX001 (ip), vehicle: saline.
The mark [3] stands for this setting: dose: 400.0 mg/kg/injection, schedule: Q04DX003 (ip), vehicle: saline with Tween-80.
Where [4] appears, read: dose: 400.0 mg/kg/injection, schedule: Q04DX002 (ip), vehicle: Klucel (hydroxypropylcellulose) (HPC).
Setting [5] is: dose: 200.0 mg/kg/injection, schedule: Q01DX009 (ip), vehicle: Klucel (hydroxypropylcellulose) (HPC).

With `CC(C)C1CCC(NC(=O)N(CCF)N=O)CC1` (stereo not given), the T/C was 125 % of control (dose: 8.0 mg/kg/injection, schedule: Q01DX001 (ip), vehicle: other); 134 % of control (dose: 16.0 mg/kg/injection, schedule: Q01DX001 (ip), vehicle: other); 131 % of control (dose: 19.0 mg/kg/injection, schedule: Q01DX001 (ip), vehicle: other). The survivor count is listed as 5 of 10 (dose: 93.0 mg/kg/injection, schedule: Q01DX001 (ip), vehicle: other); 4 of 10 (dose: 125.0 mg/kg/injection, schedule: Q01DX001 (ip), vehicle: other); 3 of 10 (dose: 250.0 mg/kg/injection, schedule: Q01DX001 (ip), vehicle: other).

With `Nc1ccc(N=Nc2ccc(C(=O)Nc3ccc4cc(S(=O)(=O)O)ccc4c3)cc2)c(N)c1N=Nc1ccc(N=Nc2ccc(O)c(C(=O)O)c2)cc1`, the survivor count reads like this: (dose: 150.0 mg/kg/injection, schedule: Q04DX003 (ip), vehicle: saline) 1 of 6; (dose: 225.0 mg/kg/injection, schedule: Q04DX003 (ip), vehicle: saline) 0 of 6; (dose: 335.0 mg/kg/injection, schedule: Q04DX003 (ip), vehicle: saline) 2 of 6.

Take `COC(=O)C1CC2c3ccccc3C1c1ccccc12` (stereo not given): the survivor count is recorded as 1 of 6 (dose: 264.0 mg/kg/injection, schedule: Q01DX001 (ip), vehicle: carboxymethylcellulose (CMC)); 0 of 6 under setting [1]; 0 of 6 (dose: 600.0 mg/kg/injection, schedule: Q01DX001 (ip), vehicle: carboxymethylcellulose (CMC)).

Turning to `S=C(S)Nc1ccccc1`, the survivor count was 2 of 6 (dose: 200.0 mg/kg/injection, schedule: Q01DX001 (ip), vehicle: Klucel (hydroxypropylcellulose) (HPC)) and 0 of 6 (dose: 400.0 mg/kg/injection, schedule: Q01DX001 (ip), vehicle: Klucel (hydroxypropylcellulose) (HPC)).

With `CN(C)c1ccc(C(=C2C=CC(=[N+](C)C)C=C2)c2ccc(N(C)C)cc2)cc1`, the survivor count under setting [2] was 4 of 6.

`CCCCNC(=NC)c1ccc(NC(=O)Nc2ccc(NC(=O)Nc3ccc(C(=NC)NCCCC)cc3)cc2)cc1`: the survivor count is 0 of 6 (dose: 7.8 mg/kg/injection, schedule: Q01DX Z (ip), vehicle: methylcellulose (MC)); 0 of 6 and 3 of 6 (dose: 15.6 mg/kg/injection, schedule: Q01DX Z (ip), vehicle: methylcellulose (MC)); 0 of 6 (dose: 31.2 mg/kg/injection, schedule: Q01DX Z (ip), vehicle: methylcellulose (MC)); 0 of 6 (dose: 62.5 mg/kg/injection, schedule: Q01DX Z (ip), vehicle: methylcellulose (MC)); 0 of 6 (dose: 125.0 mg/kg/injection, schedule: Q01DX Z (ip), vehicle: methylcellulose (MC)).

For the molecule `O=C(Nc1ccc(C2=NCCN2)c(Cl)c1)c1cccc(C(=O)Nc2ccc(C3=NCCN3)c(Cl)c2)c1`, the survivor count runs as follows: (dose: 60.0 mg/kg/injection, schedule: Q01DX Z (ip), vehicle: carboxymethylcellulose (CMC)) 2 of 6; (dose: 120.0 mg/kg/injection, schedule: Q01DX Z (ip), vehicle: carboxymethylcellulose (CMC)) 2 of 6.

On to `O=C(CBr)N1CCC2(CC1)SSC1(CCN(C(=O)CBr)CC1)S2`, for which the survivor count reads like this: (dose: 200.0 mg/kg/injection, schedule: Q01DX009 (ip), vehicle: saline with Tween-80) 3 of 6; under setting [3], 0 of 6.

Take `C[N+](C)(C)c1ccc(F)c([N+](=O)[O-])c1`: the survivor count under setting [4] is given as 2 of 3.

With `O=C[C@@H](CO)O[C@H](C=O)c1c[nH]c(=O)[nH]c1=O`, the T/C (dose: 20.0 mg/kg/injection, schedule: Q01DX009 (ip), vehicle: saline) is 137 % of control; the T/C (dose: 25.0 mg/kg/injection, schedule: Q01DX009 (ip), vehicle: saline) was 146 % of control; the T/C (dose: 30.0 mg/kg/injection, schedule: Q01DX009 (ip), vehicle: saline) is 131 % of control; the T/C (dose: 35.0 mg/kg/injection, schedule: Q01DX009 (ip), vehicle: saline) is 148 % of control; the T/C (dose: 40.0 mg/kg/injection, schedule: Q01DX009 (ip), vehicle: saline) was 140 % of control; the T/C (dose: 100.0 mg/kg/injection, schedule: Q03DX003 (ip), vehicle: saline) is 144 % of control [7 of 8 alive].

In the case of `O=[N+]([O-])/C(Br)=C\c1ccc([N+](=O)[O-])cc1`, under “dose: 300.0 mg/kg/injection, schedule: Q01DX001 (ip), vehicle: carboxymethylcellulose (CMC)”, the survivor count is given as 0 of 6.

Take `N#CSCc1ccc(CSC#N)c(Cl)c1`: the survivor count reads like this: (dose: 25.0 mg/kg/injection, schedule: Q04DX003 (ip), vehicle: Klucel (hydroxypropylcellulose) (HPC)) 6 of 6; (dose: 50.0 mg/kg/injection, schedule: Q04DX003 (ip), vehicle: Klucel (hydroxypropylcellulose) (HPC)) 5 of 6; (dose: 100.0 mg/kg/injection, schedule: Q04DX003 (ip), vehicle: Klucel (hydroxypropylcellulose) (HPC)) 0 of 6.

As to `CC(=O)c1ccc(N)cc1`, for the setting “dose: 400.0 mg/kg/injection, schedule: Q01DX009 (ip), vehicle: other”, the survivor count is 1 of 3.

In the case of `O=C(Nc1ccc(Cl)cc1)Oc1c(Cl)cc(S(=O)(=O)F)cc1Cl`, the survivor count by setting is: under setting [5], 0 of 3; (dose: 200.0 mg/kg/injection, schedule: Q04DX002 (ip), vehicle: Klucel (hydroxypropylcellulose) (HPC)) 3 of 3; under setting [4], 2 of 3.

For `COc1ccc(-c2nnc(-c3ccc(OC)c(Cl)c3)nn2)cc1Cl`, the survivor count (dose: 50.0 mg/kg/injection, schedule: Q01DX009 (ip), vehicle: saline with Tween-80) is 6 of 6.

For `O=C(O)c1ccc(OC(F)(F)C(F)Cl)cc1` (stereo not given), the survivor count under setting [5] is listed as 2 of 6.

Regarding `CCC[As](=O)(O)CCCc1ccccc1`, the survivor count reads like this: (dose: 6.25 mg/kg/injection, schedule: Q01DX009 (ip), vehicle: Klucel (hydroxypropylcellulose) (HPC)) 0 of 3; (dose: 12.5 mg/kg/injection, schedule: Q01DX009 (ip), vehicle: Klucel (hydroxypropylcellulose) (HPC)) 0 of 3; (dose: 25.0 mg/kg/injection, schedule: Q01DX009 (ip), vehicle: Klucel (hydroxypropylcellulose) (HPC)) 0 of 3.

Consider `C=CCCC1(CC=C)C(=O)NC(=O)NC1=O`, for which the survivor count (dose: 300.0 mg/kg/injection, schedule: Q01DX001 (ip), vehicle: saline) was 0 of 6.

With `Cc1ccccc1-c1nc2c(N)nc(N)nc2nc1N`, the T/C (dose: 101.0 mg/kg/injection, schedule: Q01DX Z (ip), vehicle: carboxymethylcellulose (CMC)) is 126 % of control and the T/C (dose: 202.0 mg/kg/injection, schedule: Q01DX Z (ip), vehicle: carboxymethylcellulose (CMC)) was 127 % of control.

On to `COc1cccc(O)c1/C=C/[N+](=O)[O-]`, for which the survivor count under setting [5] is 5 of 6.

As for `CCOC(=O)CC/C(=C/c1cccc2ccccc12)[N+](=O)[O-]`, the survivor count under setting [3] was 0 of 3.

In the case of `CN=C(c1ccc(NC(=O)c2ccc(C(=O)Nc3ccc(C(=NC)N4CCCC4)cc3)cc2)cc1)N1CCCC1`, the survivor count was 3 of 6 (dose: 2.0 mg/kg/injection, schedule: Q01DX Z (ip), vehicle: water) and 0 of 6 (dose: 4.0 mg/kg/injection, schedule: Q01DX Z (ip), vehicle: water).

`CCCCCCCCCC(=O)N/N=C/c1ccccc1Cl`: the survivor count is, setting by setting: (dose: 100.0 mg/kg/injection, schedule: Q01DX009 (ip), vehicle: Klucel (hydroxypropylcellulose) (HPC)) 3 of 6; under setting [5], 1 of 6; (dose: 400.0 mg/kg/injection, schedule: Q01DX009 (ip), vehicle: Klucel (hydroxypropylcellulose) (HPC)) 0 of 6.

Turning to `CCOC(=O)C(CCSC)(CCN(C)Cc1ccccc1)C(=O)OCC`, the survivor count by setting is: (dose: 200.0 mg/kg/injection, schedule: Q01DX001 (ip), vehicle: saline) 1 of 4; under setting [2], 2 of 4.

For `Brc1csnn1`, the survivor count under setting [1] is recorded as 2 of 4.

In the case of `OC(c1cc(-c2cccc(Cl)c2)nc2ccccc12)C1CCCCN1` (stereo not given), the survivor count under setting [1] is 0 of 4.

As to `S=c1ncn(C2CCCCC2)c(=S)[nH]1`, the survivor count (dose: 200.0 mg/kg/injection, schedule: Q04DX003 (ip), vehicle: Klucel (hydroxypropylcellulose) (HPC)) is reported as 6 of 6.

Regarding `CCn1c(C)nc2cc(Cl)c(Br)cc21`, for the setting “dose: 400.0 mg/kg/injection, schedule: Q04DX003 (ip), vehicle: saline”, the survivor count is 6 of 6.
